Measurements taken from PubChem BioAssay AID1999 (Broad Institute, 2009).
The list shows a part of the results. Measured potencies and affinities stand elsewhere. Where no call is shown, the source marks the result inconclusive.

Assay: activators of PrP 5'UTR-driven reporter translation, dose response, luminescence (AID 1999)
Details: H4 cells, PrP 5'UTR luciferase reporter; at 12 µM (top of the series) unless noted

| Compound | activation |
| --- | --- |
| Cc1cc(NC(=O)OC2CCCCC2)ccc1[N+](=O)[O-] | 56.3% |
| CC1(C)CC(=O)c2cnc(N3CCc4ccccc4C3)nc2C1 | 43.2% |
| C/C(=N\Nc1ccc(C(=O)O)cc1)c1nc2ccccc2n1C | 111% |
| CSc1nsc(N/N=C/c2ccc3c(c2)OCO3)c1C#N | 60.1% |
| COCCn1c(C)cc(C(=O)CSc2nc3ccccc3c(=O)[nH]2)c1C | 46.9% |
| COc1cccc(Nc2nnc(SCc3nc4ccccc4s3)s2)c1 | 110% |
| Cc1ccc(NC(=O)c2ccc(OC(=O)CCN3C(=O)c4ccccc4C3=O)cc2)cc1 | 73% |
| N/C(=N\OC(=O)c1cccc(F)c1)c1ccccc1 | 124% |
| O=C(Nc1ncc(Cc2ccccc2)s1)C1COc2ccccc2O1 (stereo not given) | 67.4% |
| O=C(Nc1nc2ccsc2c(=O)s1)c1ccc(F)cc1 | 58.9% |
| COc1cccc(-c2cn3nc(C)c(C)nc3n2)c1 | 50.7% [at 6 µM] |
| O=C(NC1CCCCCC1)c1ccc(CN2CCOCC2)cc1 | 66.5% |
| COc1ccc(Nc2cnn(-c3nc4ccccc4s3)c(=O)c2Cl)cc1 | 53.1% |
| Cc1ccc(/C(N)=N/OC(=O)CSc2ccccc2)cc1 | 43.7% |
| Cc1ccc2cc(CCNC(=O)c3cccs3)c(=O)[nH]c2c1C | 57% |
| CN1CCN(CC(=O)N(C)c2nc(-c3ccccc3)cs2)CC1 | 35.8% |
| O=C(NC1CCCC1)c1cc(-c2cccs2)on1 | 92.7% |
| CCOC(=O)c1c(-c2ccccc2)cn2c(C)cc(C)nc12 | 67.5% |
| O=C(Nc1nc(-c2ccc3c(c2)OCCO3)cs1)C1CCCC1 | 74.4% |
| COc1ccc(-c2cc3c(=O)n(CC(=O)NCc4ccc(F)cc4)ncn3n2)cc1 | 17.6% |

| Compound | activation |
| --- | --- |
| Clc1ccc(Nc2nc3cccnc3s2)cc1 | 94.2% |
| O=[N+]([O-])c1ccc2c(c1)nc1n2CCN(C2CCCCC2)C1 | 17.3% [at 6 µM] |
| CC1Oc2cc3oc4c(O)c5c(cc4c(=O)c3c(O)c2C1(C)C)C=CC(C)(C)O5 (stereo not given) | 103% |
| O=C(NCC(O)c1ccccc1)c1ccc(Cl)c(S(=O)(=O)N2CCCC2)c1 (stereo not given) | 49.8% |
| Nc1c(C(=O)Nc2ccc3c(c2)OCCO3)nnn1Cc1ccc(Br)cc1 | 65.1% |
| N#Cc1c(NC(=O)C2CCCO2)sc2c1CCCCC2 (stereo not given) | 61% |
| Cc1cc(N)n2ncc(-c3ccccc3)c2n1 | 52.9% |
| NC(=O)C1CC(=O)N(c2ccc(OCc3ccc(Cl)cc3)cc2)C1 (stereo not given) | 63.5% |
| Cc1ccc(N=Nc2c(C)[nH]n(C(N)=S)c2=O)cc1C | 108% |
| Clc1ccc(-c2nsc(N3CCOCC3)n2)c(Cl)c1 | 38.3% |
| N/C(=N\N=C\c1ccc(O)cc1)c1nonc1N | 59.4% |
| COc1c(C)cccc1C(=O)Nc1ccc(N2CCOCC2)c(Cl)c1 | 41.7% |
| Cn1cccc1/C=C1\CCC/C(=C\c2cccn2C)C1=O | 77.5% |
| O=C1N(c2ccccc2)C[C@@H]2C[C@@H](c3cc4ccccc4o3)N3CCC[C@@]123 | -77.7% |
| Cc1ccc(C(=O)Cn2ncsc2=N)cc1 | 63.9% |
| CSc1ccc(CNC(=O)Cc2ccc(NC(=O)C3=C(C)OCCS3)cc2)cc1 | 17.9% |
| Nc1c(C(=O)c2ccccc2)oc2ccc(Br)cc12 | 93.9% |
| COc1cccc2[nH]c(=O)c(-c3ccccc3)cc12 | 54.6% |
| COc1ccc(C(=O)N=c2sc3c(C)ccc(OC)c3n2C)cc1OC | 56.1% |
| CN(C)c1ccc(/C=N/n2ncc3ccccc32)cc1 | -33.2% |

| Compound | activation |
| --- | --- |
| CCOC(=O)c1cnc(SCc2ccccc2)nc1N | 33.2% |
| O=C(Nc1ccc(-c2cn3ccccc3n2)cc1)c1ccco1 | 35.9% |
| Cc1ccccc1-n1c(C)nnc1SCc1nc2ccccc2s1 | 73.6% |
| Cc1ccc(Cn2ccnc2C(=O)Nc2ccccc2)cc1 | 91.8% |
| Cc1c(C(=O)NC(=S)NCC(C)C)oc2ccccc12 | 85.9% |
| Cc1ccc(-c2c(C)sc(=NC(=O)c3ccco3)n2C)cc1 | 9.6% |
| Cc1ccc(OCCOc2cccc(Br)c2)c([N+](=O)[O-])n1 | 67% |
| O=C(N/N=C\c1cccc(Cl)c1)c1n[nH]c2c1CCCC2 | 31.3% |
| CCOC(=O)CSc1nc(-c2ccc3c(c2)OCO3)ccc1C#N | 56.6% |
| Nc1c(-c2cccs2)cnn1-c1nc(-c2ccc(F)cc2)cs1 | 52.6% |
| c1ccc2c(c1)oc1c(Nc3ccc(CN4CCOCC4)cc3)ncnc12 | 50.4% |
| Cc1ccc(OCc2nc(-c3ccccc3)no2)c(C)c1 | 73.9% |
| COc1c2c(cc3oc(=O)c4c5ccc(O)cc5oc4c13)OC(C)(C)CC2 | 83.5% |
| CCOc1ccc2nc(N3CCOCC3)nc(C)c2c1 | 58% |
| O=C(Nc1cccc(Cl)c1)c1ccc2c(=O)n3c(nc2c1)CCCCC3 | 16.4% |
| O=C(NC1=NCCS1)c1ccc(-c2ccc(Cl)cc2)o1 | 74.2% |
| Cc1nc2cc(NC(=O)CCS(=O)(=O)c3ccccc3)ccc2s1 | 44.6% |
| O=c1sc(N2CCN(c3ccccc3F)CC2)nc2ccsc12 | 79% |
| CC(C)c1ccc(NC(=O)NC2CCCCC2)cc1 | 37.8% |
| Cc1cc(NC(=O)c2cccc(Br)c2)n[nH]1 | 62.1% |

Compounds above with bromine:

| Compound | activation |
| --- | --- |
| Nc1c(C(=O)Nc2ccc3c(c2)OCCO3)nnn1Cc1ccc(Br)cc1 | 65.1% |
| Nc1c(C(=O)c2ccccc2)oc2ccc(Br)cc12 | 93.9% |
| Cc1ccc(OCCOc2cccc(Br)c2)c([N+](=O)[O-])n1 | 67% |
| Cc1cc(NC(=O)c2cccc(Br)c2)n[nH]1 | 62.1% |
